{"sequences": {"note": "Protein sequences, listed by entry. Tags and fused reporters are not part of them.", "UniProt P32333": "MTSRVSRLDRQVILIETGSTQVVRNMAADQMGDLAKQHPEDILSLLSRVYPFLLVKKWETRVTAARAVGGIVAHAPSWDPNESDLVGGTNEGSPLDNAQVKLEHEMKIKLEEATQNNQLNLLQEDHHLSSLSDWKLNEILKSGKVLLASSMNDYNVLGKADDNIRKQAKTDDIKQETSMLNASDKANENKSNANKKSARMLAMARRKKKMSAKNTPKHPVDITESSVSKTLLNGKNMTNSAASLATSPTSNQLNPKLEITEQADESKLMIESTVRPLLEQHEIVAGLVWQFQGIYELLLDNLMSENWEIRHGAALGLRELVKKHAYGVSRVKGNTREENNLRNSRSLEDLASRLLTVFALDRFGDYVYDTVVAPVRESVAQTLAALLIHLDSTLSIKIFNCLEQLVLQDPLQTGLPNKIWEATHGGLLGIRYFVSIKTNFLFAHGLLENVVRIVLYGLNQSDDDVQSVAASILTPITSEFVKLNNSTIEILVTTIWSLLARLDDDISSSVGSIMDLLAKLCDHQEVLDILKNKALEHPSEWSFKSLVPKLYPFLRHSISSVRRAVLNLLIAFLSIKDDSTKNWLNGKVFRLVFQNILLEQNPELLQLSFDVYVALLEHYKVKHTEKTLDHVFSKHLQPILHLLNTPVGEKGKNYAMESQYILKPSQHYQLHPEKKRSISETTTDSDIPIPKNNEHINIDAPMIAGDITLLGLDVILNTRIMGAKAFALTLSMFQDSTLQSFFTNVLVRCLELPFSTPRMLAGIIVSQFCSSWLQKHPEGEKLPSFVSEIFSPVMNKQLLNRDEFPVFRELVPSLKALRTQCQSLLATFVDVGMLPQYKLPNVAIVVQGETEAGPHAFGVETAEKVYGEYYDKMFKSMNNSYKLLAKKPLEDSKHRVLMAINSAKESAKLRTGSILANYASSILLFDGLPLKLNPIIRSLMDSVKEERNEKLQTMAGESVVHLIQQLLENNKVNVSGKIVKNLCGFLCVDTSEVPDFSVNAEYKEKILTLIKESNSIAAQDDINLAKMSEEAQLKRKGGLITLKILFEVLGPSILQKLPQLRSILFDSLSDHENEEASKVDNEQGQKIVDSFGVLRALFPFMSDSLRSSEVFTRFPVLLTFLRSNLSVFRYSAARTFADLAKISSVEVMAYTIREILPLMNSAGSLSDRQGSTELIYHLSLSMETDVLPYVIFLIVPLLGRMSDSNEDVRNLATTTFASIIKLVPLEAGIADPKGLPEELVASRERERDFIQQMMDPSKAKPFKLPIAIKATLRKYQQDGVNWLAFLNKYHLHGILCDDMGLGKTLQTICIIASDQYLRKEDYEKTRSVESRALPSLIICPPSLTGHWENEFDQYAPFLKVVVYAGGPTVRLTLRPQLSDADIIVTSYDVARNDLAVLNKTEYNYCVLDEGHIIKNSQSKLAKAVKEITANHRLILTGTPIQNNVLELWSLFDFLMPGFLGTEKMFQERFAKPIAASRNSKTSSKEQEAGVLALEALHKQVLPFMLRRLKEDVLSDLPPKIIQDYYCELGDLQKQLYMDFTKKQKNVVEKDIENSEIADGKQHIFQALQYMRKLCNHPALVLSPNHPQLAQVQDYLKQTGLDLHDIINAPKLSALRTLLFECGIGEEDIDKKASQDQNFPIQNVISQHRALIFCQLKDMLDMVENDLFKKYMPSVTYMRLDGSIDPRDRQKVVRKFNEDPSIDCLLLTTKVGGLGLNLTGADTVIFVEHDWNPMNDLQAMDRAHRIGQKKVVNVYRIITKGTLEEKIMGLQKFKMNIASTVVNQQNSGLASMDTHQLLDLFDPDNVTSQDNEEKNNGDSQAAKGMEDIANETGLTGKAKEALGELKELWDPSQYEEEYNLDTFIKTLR"}, "source": "paper PMC6451094", "key": {"[1]": {"molecular_target": "T1, TATA-box Binding Protein TBP^S61C,C78A,C164A from Saccharomyces cerevisiae, fluorescently labeled at residue 61 (Saccharomyces cerevisiae) (UniProt P13393)", "T1 sequence (chain, Atto532 or Atto647N (maleimide-coupled) on the cysteine at residue 61)": "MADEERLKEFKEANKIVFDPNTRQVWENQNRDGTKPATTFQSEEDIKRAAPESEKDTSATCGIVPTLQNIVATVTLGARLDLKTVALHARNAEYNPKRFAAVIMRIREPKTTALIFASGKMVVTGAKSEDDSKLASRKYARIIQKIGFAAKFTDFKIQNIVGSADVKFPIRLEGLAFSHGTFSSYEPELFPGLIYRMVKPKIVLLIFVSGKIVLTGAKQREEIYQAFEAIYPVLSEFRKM", "experiment": "FRET or BRET; single-pair FRET in solution, confocal multi-parameter fluorescence detection with pulsed interleaved excitation (MFD-PIE); complexes prepared as for TIRF, diluted to <50 pM, measured 2 h; Mot1 binding read from the FRET increase between TBP and DNA; both purified"}, "[2]": {"molecular_target": "T1, TATA-box Binding Protein TBP^S61C,C78A,C164A from Saccharomyces cerevisiae, fluorescently labeled at residue 61 (Saccharomyces cerevisiae)", "experiment": "FRET or BRET; single-pair FRET by prism-type TIRF between TBP-Atto532 and H2B promoter DNA 1-Atto647N; 10 nM DNA and 15 nM TBP pre-incubated 15 min RT, then 12.5 nM Mot1 for at least 15 min RT, diluted to ~100 pM; DNA immobilised by biotin-streptavidin-biotin; 10 mM Tris, 60 mM KCl, 5 mM MgCl2, 10% glycerol, 0.25 mg/ml BSA, 2.5 mM DTT, pH 8.2; Mot1 binding not monitored directly but read from the shift to FRET efficiency 0.78; also seen with AdML promoter DNA 6; both purified"}, "[3]": {"molecular_target": "T1, TATA-box Binding Protein TBP^S61C,C78A,C164A from Saccharomyces cerevisiae, fluorescently labeled at residue 61 (Saccharomyces cerevisiae)", "experiment": "three-color single-molecule TIRF (presence of Mot1-Alexa488 on immobilised DNA/TBP complexes); alternating 488 and 532 nm excitation; complexes containing Mot1 identified by fluorescence in the green channel after 488 nm excitation; DNA/TBP FRET recorded at the same time; no nucleotide; both purified"}, "[4]": {"molecular_target": "T1, TATA-box Binding Protein TBP^S61C,C78A,C164A from Saccharomyces cerevisiae, fluorescently labeled at residue 61 (Saccharomyces cerevisiae)", "experiment": "three-color single-molecule TIRF (presence of Mot1-Alexa488 on immobilised DNA/TBP complexes); as a3, after addition of ATP to the ternary DNA/TBP/Mot1 complexes; both purified"}}, "note": "These are yes or no findings as the source states them, for the method shown. Some results given as binding are weak or reduced against the parent protein; the word gives no strength. Where a sequence is shown, tags or fusion partners need not be part of it."}
{"substance": "Modifier of transcription 1 (Mot1) (from UniProt P32333 1-1867) (enzyme)", "values": [{"measurement": "binding", "setting": "[1]", "value": "binds"}, {"measurement": "binding", "setting": "[2]", "value": "binds"}]}
{"substance": "Modifier of transcription 1 (Mot1) labeled with Alexa488 (from UniProt P32333 1-1867) (enzyme)", "values": [{"measurement": "binding", "setting": "[3]", "value": "binds"}, {"measurement": "binding", "setting": "[4]", "value": "binds"}]}
